Data published in US10179120B2, “Dosage regimen of ferric trimaltol” (Iron Therapeutics Holdings AG, priority 2014, dated 2019).

Assay: Example 2: open-label, randomised, single and repeat dose Phase I pharmacokinetic study in subjects with iron deficiency
Type: in vivo, human
Settings: over time and across dose groups
Procedure: These studies were primarily pharmacokinetic and conducted in subjects with iron deficiency having active inflammatory disease or acute chronic inflammation. An open-label, randomised, single and repeat dose parallel group Phase I pharmacokinetic study was carried out to evaluate the effect of single and repeated twice daily (bid) oral doses of ST10 at 30 mg, 60 mg and 90 mg for 8 days.
24 subjects with iron deficiency (with or without anaemia) were randomly allocated to one of the three ST10 dose groups as follows:
Group 1: 9 subjects received ST10, 30 mg twice daily for 7 days (days 1-7) plus a final 30 mg dose on the morning of day 8.
Group 2: 8 subjects received ST10, 60 mg twice daily for 7 days (days 1-7) plus a final 60 mg dose on the morning of day 8.
Group 3: 7 subjects received ST10, 90 mg twice daily for 7 days (days 1-7) plus a final 90 mg dose on the morning of day 8.
On day 1, following fasting for at least 1.5-2 hours beforehand, ST10 was administered (30 mg, 60 mg or 90 mg) and blood samples collected over the following 6 h for analysis. […]
Serum concentrations of transferrin, total iron binding capacity (TIBC), ferritin and soluble transferrin receptor; and reticulocyte haemoglobin concentrations (CHr) in whole blood were measured by central laboratories using appropriately validated methods. […]

ferric trimaltol [ST10]
Soluble transferrin receptor, mean concentration: approximately 4 mg/L
Total iron binding capacity, mean concentration: approximately 70 μmol/L
